The subject of data set [1] is odor evaluation panel. As to the kind of experiment: Odor evaluation panel rating of odorants by Rate-All-That-Apply (RATA) method with 55-word odor lexicon, plus intensity and pleasantness. The arrangement: species or system human. Particulars: for Floral: mean panelist score for odor label floral (RATA); for Fruity: mean panelist score for odor label fruity (RATA); for Spicy: mean panelist score for odor label spicy (RATA); for Sweet: mean panelist score for odor label sweet (RATA); for Pleasantness: mean panelist score for odor pleasantness.

Data set [2] is described as follows: Evaluation by trained and/or certified flavor or fragrance chemists or master perfumers; categorization by commercial prospect. Particulars: for Rating (category of commercial prospect): evaluation by trained flavor or fragrance chemists or master perfumers; for Rating: category of commercial prospect, (A) highest > (B) > (C) > (D) lowest, (E) requires further study.

`O=C1CCc2cc(O)ccc21` [Compound 887, 5-hydroxy-2,3-dihydroinden-1-one]: in data set [1], the Floral stood at 0.056, the Fruity was found to be 0, the Spicy is 0 and the Sweet amounted to 0.139. For the same molecule, the “Rating (category of commercial prospect)” value in data set [2] was “(D)”.

As for `CSc1nccs1` [Compound 164, 2-methylsulfanyl-1,3-thiazole], in data set [1], the Floral is given as 0, the Fruity is given as 0, the Spicy is listed as 0.125 and the Sweet is 0.344. The Pleasantness in data set [1] was found to be 5.719. The Rating entry in data set [2] is on record as “(C)”.

In the case of `CCOc1c(OCC)c(=O)c1=O` [Compound 268, 3,4-diethoxycyclobut-3-ene-1,2-dione], in data set [1], the Floral amounted to 0.125, the Fruity stood at 0.75, the Spicy stood at 0 and the Sweet turned out to be 0.531. Moreover, the Pleasantness in data set [1] was found to be 5.756. Besides, in data set [2], the Rating result was “(B)”.

As to `O=Cc1ccc2ccccc2n1` [Compound 168, quinoline-2-carbaldehyde], in data set [1], the Floral was 0.125, the Fruity is reported as 0, the Spicy stood at 0.594 and the Sweet was 0.125. Besides, in data set [1], the Pleasantness was 3.25. The Rating result in data set [2] was “(D)”.

For `COC(=O)C1=CCCC1` [Compound 229, methyl cyclopentene-1-carboxylate], in data set [1], the Floral is on record as 0.417, the Fruity turned out to be 0.889, the Spicy amounted to 0.056 and the Sweet is given as 0.722. Moreover, the Rating entry in data set [2] is “(A)”.

`CC(C)OC(=O)C1(C(=O)OC(C)C)CC(=O)C1` [Compound 148, dipropan-2-yl 3-oxocyclobutane-1,1-dicarboxylate]: in data set [1], the Floral is on record as 0.25, the Fruity was 0.156, the Spicy worked out at 0.125 and the Sweet turned out to be 0.25. For the same molecule, the Pleasantness in data set [1] was found to be 5.334. For the same molecule, in data set [2], the Rating result is “(D)”.

Take `CC(C)OC(=O)CCC(=O)OC(C)C` [Compound 492, dipropan-2-yl butanedioate]: in data set [1], the Floral was determined as 0.281, the Fruity came out at 1.406, the Spicy amounted to 0.094 and the Sweet is 0.844. In data set [1], the Pleasantness worked out at 6.372. For the same molecule, the Rating result in data set [2] is “(A)”.

In the case of `C#CC1(O)CCCCC1` [Compound 319, 1-ethynylcyclohexan-1-ol], in data set [1], the Floral is reported as 0, the Fruity is on record as 0.111, the Spicy is 0 and the Sweet is recorded as 0.528. Further, in data set [2], the Rating result is “(C)”.

Regarding `C1CCC(NC2CCCCC2)CC1` [Compound 105, N-cyclohexyl cyclohexanamine], in data set [1], the Floral worked out at 0.167, the Fruity worked out at 0, the Spicy amounted to 0.056 and the Sweet is on record as 0.111. Also, the Rating entry in data set [2] is recorded as “(D)”.

Regarding `O=C(O)C1(c2ccccc2)CC1` [Compound 368, 1-phenylcyclopropane-1-carboxylic acid], in data set [1], the Floral was determined as 1.639, the Fruity was found to be 0, the Spicy stood at 0.167 and the Sweet is 0.944. In addition, the Rating result in data set [2] is “(D)”.

`CC(C)(C)C(=O)CC#N` [Compound 791, 4,4-dimethyl-3-oxopentanenitrile]: in data set [1], the Floral is reported as 0.194, the Fruity is given as 0.917, the Spicy stood at 0 and the Sweet is given as 0.861. Also, in data set [2], the “Rating (category of commercial prospect)” value is recorded as “(D)”.

Take `COC(=O)c1ccc(OC)c(N)c1` [Compound 36, methyl 3-amino-4-methoxybenzoate]: in data set [1], the Floral is 0.167, the Fruity stood at 0, the Spicy is recorded as 0.167 and the Sweet was determined as 0.222. For the same molecule, in data set [2], the Rating entry was “(D)”.

Turning to `Cc1cccc(C=O)c1O` [Compound 478, 2-hydroxy-3-methylbenzaldehyde], in data set [1], the Floral was found to be 0.438, the Fruity came out at 0.5, the Spicy was found to be 0.281 and the Sweet came out at 1.812. For the same molecule, in data set [1], the Pleasantness amounted to 5.997. The Rating entry in data set [2] is reported as “(D)”.

On to `COC(=O)c1c(C)csc1N` [Compound 550, methyl 2-amino-4-methylthiophene-3-carboxylate], for which, in data set [1], the Floral came to 0.086, the Fruity was determined as 0, the Spicy is 0.257 and the Sweet was 0. The Pleasantness in data set [1] came to 2.509. Moreover, the Rating result in data set [2] is recorded as “(C)”.

For the molecule `CN1C(=O)c2ccccc2C1=O` [Compound 481, 2-methylisoindole-1,3-dione], in data set [1], the Floral turned out to be 0.062, the Fruity is given as 0, the Spicy was 0.062 and the Sweet was 0.125. Further, in data set [1], the Pleasantness was determined as 4.684. For the same molecule, in data set [2], the Rating result is “(D)”.

For the molecule `OC12CC3CC(C1)CC(O)(C3)C2` [Compound 240, adamantane-1,3-diol], in data set [1], the Floral is 0.083, the Fruity turned out to be 0, the Spicy is listed as 0 and the Sweet is given as 0.25. For the same molecule, in data set [2], the Rating result is “(D)”.

In the case of `CCCC#CCCO` [Compound 101, hept-3-yn-1-ol], in data set [1], the Floral is on record as 0, the Fruity is listed as 0.3, the Spicy came to 0.167 and the Sweet is 0.533. Also, in data set [1], the Pleasantness came to 5.177. Further, in data set [2], the Rating entry is on record as “(C)”.

On to `C1CSCCN1` [Compound 800, thiomorpholine], for which, in data set [1], the Floral turned out to be 0.031, the Fruity came to 0, the Spicy amounted to 0.125 and the Sweet stood at 0. In data set [1], the Pleasantness is 4.222. For the same molecule, the “Rating (category of commercial prospect)” value in data set [2] was “(D)”.

For the molecule `Nc1ccccc1CCO` [Compound 373, 2-(2-aminophenyl)ethanol], in data set [1], the Floral is recorded as 0.562, the Fruity worked out at 0.25, the Spicy turned out to be 0 and the Sweet was 0.594. For the same molecule, the Pleasantness in data set [1] is reported as 5.078. Besides, in data set [2], the Rating entry was “(D)”.

With `CC(=O)C12CC3CC(CC(C3)C1)C2` [Compound 414, 1-(1-adamantyl)ethanone], in data set [1], the Floral came to 0.171, the Fruity stood at 0.457, the Spicy worked out at 0 and the Sweet is reported as 0.771. Further, the Pleasantness in data set [1] was found to be 5.346. In addition, in data set [2], the Rating result is recorded as “(B)”.

Regarding `COC(CSC)OC` [Compound 301, 1,1-dimethoxy-2-methylsulfanylethane], in data set [1], the Floral was found to be 0.03, the Fruity amounted to 0, the Spicy is given as 0.939 and the Sweet came to 0.152. Moreover, the Pleasantness in data set [1] was 6.236. In addition, the Rating result in data set [2] is given as “(D)”.

Turning to `c1cnn(C2CCCCO2)c1` (centres unmarked) [Compound 188, 1-(oxan-2-yl)pyrazole], in data set [1], the Floral was found to be 0.629, the Fruity is reported as 0.171, the Spicy was found to be 0.229 and the Sweet is on record as 0.457. Moreover, in data set [1], the Pleasantness worked out at 4.757. Further, the Rating entry in data set [2] is on record as “(D)”.

For `CC(=NO)C(C)(C)C` [Compound 193, N-(3,3-dimethylbutan-2-ylidene)hydroxylamine], in data set [1], the Floral is recorded as 0, the Fruity was 0, the Spicy came to 0.4 and the Sweet was 0.033. Further, the Pleasantness in data set [1] amounted to 3.323. Also, the Rating entry in data set [2] was “(A)”.

Turning to `O=c1ccoc2ccccc12` [Compound 480, chromen-4-one], in data set [1], the Floral is 0.889, the Fruity was determined as 0.583, the Spicy is 0 and the Sweet was determined as 1.25. Besides, the Rating entry in data set [2] is given as “(B)”.

As for `Nc1nc(=S)ss1` [Compound 246, 5-amino-1,2,4-dithiazole-3-thione], in data set [1], the Floral came out at 0, the Fruity worked out at 0, the Spicy is 0.281 and the Sweet was found to be 0.125. For the same molecule, the Pleasantness in data set [1] was 4.744. Besides, the Rating entry in data set [2] was “(D)”.

With `CNCC[C@H](O)c1cccs1` [Compound 917, (1S)-3-(methylamino)-1-thiophen-2-ylpropan-1-ol], in data set [1], the Floral is reported as 0, the Fruity came out at 0, the Spicy is listed as 0.057 and the Sweet amounted to 0.143. Also, the Pleasantness in data set [1] amounted to 6.211. Further, the “Rating (category of commercial prospect)” value in data set [2] is given as “(A)”.

`CC(C)(C)CCO` [Compound 485, 3,3-dimethylbutan-1-ol]: in data set [1], the Floral is recorded as 0.452, the Fruity came to 0.516, the Spicy is 0 and the Sweet is 0.742. Further, the Pleasantness in data set [1] is listed as 4.235. Moreover, in data set [2], the Rating entry is reported as “(D)”.

In the case of `CCC1CCCCC1` [Compound 209, ethylcyclohexane], in data set [1], the Floral is reported as 0.233, the Fruity was 0.1, the Spicy is recorded as 0 and the Sweet was 0.567. Besides, the Pleasantness in data set [1] was 4.453. Moreover, the Rating entry in data set [2] is recorded as “(C)”.

For `CC(NC(=O)OC(C)(C)C)C(=O)O` (racemic) [Compound 12, boc-DL-alanine], in data set [1], the Floral is 0.528, the Fruity was 0.667, the Spicy is given as 0.056 and the Sweet was 1.306. Further, the Rating entry in data set [2] was “(D)”.

On to `Cc1ccc2ocnc2c1` [Compound 282, 5-methyl-1,3-benzoxazole], for which, in data set [1], the Floral was determined as 0.088, the Fruity came out at 0.059, the Spicy came out at 0.735 and the Sweet is recorded as 0.971. For the same molecule, in data set [1], the Pleasantness worked out at 4.512. In addition, the Rating result in data set [2] is “(D)”.

These data come from patent US20250075147A1, “FRAGRANCE AND FLAVOR COMPOSITIONS COMPRISING NEW FLAVOR AND FRAGRANCE INGREDIENTS” (priority 2023, published 2025).
